This experiment can be described thus: IkB Signaling. The following applies: ABC-DLBCL IkBa-CBG/CBR dual luciferase ratio (green luciferase fused to IkBa over red control in OCI-Ly3 lymphoma cells), 4 h. An outline of the steps:
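Curves were fitted separately to fusion (green), unfused (red) and ratio luminescence, then classed by r2, magnitude and activity. Cells: OCI-Ly3, 4 h compound plus doxycycline at 37C; 10 uM MG-132 defined full response.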

Setting [1] is: measured here: control luc red channel unless noted.

The other results are listed elsewhere or left out. Further columns of the screen follow, without active or inactive calls. Compounds called inactive in the main read-out are mostly missing here. Potencies come from curve fits of mixed quality, noted in brackets.

In general, AC50 refers to the midpoint of the concentration-response curve, whichever way the signal moves.

For the compound `Cc1nc2nc(NCc3ccc(Br)cc3)[nH]n2c(=O)c1Cc1ccccc1`, the half-maximal activity concentration (AC50) under setting [1] is 20 µM [falling, partial curve].

As for `COc1cccc(Cn2c(=O)n(CC3CCC(C(=O)N4CCOCC4)CC3)c(=O)c3sccc32)c1` (centres undefined), the AC50 under setting [1] was 1.58 µM [rising, partial curve].

In the case of `Cc1oc2ncn(CC(C)C)c(=O)c2c1C(=O)NCCCN1CCCCC1C` (centres undefined), the AC50 under setting [1] was 3.98 µM [rising, partial curve, poor fit].

With `CCOc1ccc(NC(=O)c2oc3ccccc3c2NC(=O)Cc2cccs2)cc1`, under setting [1], the AC50 is 3.16 µM [falling, partial curve].

As for `CCc1ccc2c(c1)c(=O)c(C(=O)c1ccccc1)cn2CC(=O)Nc1ccc(C)c(Cl)c1`, the AC50 under setting [1] is 31.6 µM [falling, partial curve].

Regarding `CCc1ccc2c(c1)c(=O)c(C(=O)c1ccc(C)cc1)cn2CC(=O)Nc1ccccc1C`, the AC50 under setting [1] is 20 µM [falling, partial curve].

Take `COc1ccc(-c2nnc(SCC(=O)NCCc3ccccc3)nc2-c2ccc(OC)cc2)cc1`: under setting [1], the AC50 was 25.1 µM [falling, single point].

On to `CC(NS(=O)(=O)c1ccccc1)C(=O)Nc1nccs1` (centres undefined), for which, under setting [1], the half-maximal activity concentration (AC50) was 10 µM [falling, partial curve].

As to `COc1ccc(-c2c(C)nn3c(-c4ccccc4)cc(-c4ccccc4)nc23)cc1`, under setting [1], the AC50 is 12.6 µM [rising, partial curve].

As for `O=C(Cc1ccc(NC(=O)N2CCCCc3ccccc32)cc1)Nc1ccccc1Br`, the half-maximal activity concentration (AC50) under setting [1] is 31.6 µM [falling, single point].

Regarding `CCSc1nnc(NC(=O)C2CCCCC2)s1`, the AC50 under setting [1] is 6.31 µM [falling, partial curve].

Turning to `CCCCN(CC)S(=O)(=O)c1ccc(C(=O)Nc2nnc(-c3cccs3)o2)cc1`, the concentration at half-maximal activity (AC50) under setting [1] is 6.31 µM [falling, partial curve].

For `CCCCNc1cc(N2CCN(C3CCCCC3)CC2)c2noc3c2c1C(=O)c1ccccc1-3`, the AC50 under setting [1] is 10 µM [falling, partial curve].

For `Cc1cc(=O)c2cc(Cl)ccc2[nH]1`, under setting [1], the AC50 is 39.8 µM [falling, single point].

Take `CCCCC(=O)N1CCN(c2nc3c(C)c(C)ccc3s2)CC1`: under setting [1], the AC50 is 3.16 µM [rising, single point].

For the compound `COc1cccc(C(=O)Nc2ccc(C(=O)OCc3cc(=O)n4cc(C)sc4n3)cc2)c1`, the AC50 under setting [1] is 39.8 µM [rising, single point].

Consider `Cc1nc2c(C(=O)NCCc3ccccc3)c[nH]n2c(=O)c1Cc1ccccc1F`, for which, under setting [1], the concentration at half-maximal activity (AC50) is 15.8 µM [falling, partial curve].

Take `CCOc1ccc2nc(NC(=O)Nc3cccs3)sc2c1`: the AC50 runs as follows: (measured here: IkB-luc green channel) 39.8 µM [falling, single point]; (measured here: control luc red channel) 20 µM [falling, single point].
